For five molecules, binding results are on record in paper PMC7410302.

These are yes or no findings as the source states them, for the method shown. In cells and extracts the contact can be indirect. Here binding means that the protein was enriched with, or labelled near, the bait; the list need not be complete.

Sequences and labels used below:
B1: Fasciclin 1 (protein, UniProt P10674 22-625)
chain: DLADKLRDDSELSQFYSLLESNQIANSTLSLRSCTIFVPTNEAFQRYKSKTAHVLYHITTEAYTQKRLPNTVSSDMAGNPPLYITKNSNGDIFVNNARIIPSLSVETNSDGKRQIMHIIDEVLEPLTVKAGHSDTPNNPNALKFLKNAEEFNVDNIGVRTYRSQVTMAKKESVYDAAGQHTFLVPVDEGFKLSARSSLVDGKVIDGHVIPNTVIFTAAAQHDDPKASAAFEDLLKVTVSFFKQKNGKMYVKSNTIVGDAKHRVGVVLAEIVKANIPVSNGVVHLIHRPLMIIDTTVTQFLQSFKENAENGALRKFYEVIMDNGGAVLDDINSLTEVTILAPSNEAWNSSNINNVLRDRNKMRQILNMHIIKDRLNVDKIRQKNANLIAQVPTVNNNTFLYFNVRGEGSDTVITVEGGGVNATVIQADVAQTNGYVHIIDHVLGVPYTTVLGKLESDPMMSDTYKMGKFSHFNDQLNNTQRRFTYFVPRDKGWQKTELDYPSAHKKLFMADFSYHSKSILERHLAISDKEYTMKDLVKFSQESGSVILPTFRDSLSIRVEEEAGRYVIIWNYKKINVYRPDVECTNGIIHVIDYPLLEEKDVVVA
B2: Innexin 2 (protein, UniProt Q9V427 1-367)
chain: MFDVFGSVKGLLKIDQVCIDNNVFRMHYKATVIILIAFSLLVTSRQYIGDPIDCIVDEIPLGVMDTYCWIYSTFTVPERLTGITGRDVVQPGVGSHVEGEDEVKYHKYYQWVCFVLFFQAILFYVPRYLWKSWEGGRLKMLVMDLNSPIVNDECKNDRKKILVDYFIGNLNRHNFYAFRFFVCEALNFVNVIGQIYFVDFFLDGEFSTYGSDVLKFTELEPDERIDPMARVFPKVTKCTFHKYGPSGSVQTHDGLCVLPLNIVNEKIYVFLWFWFIILSIMSGISLIYRIAVVAGPKLRHLLLRARSRLAESEEVELVANKCNIGDWFLLYQLGKNIDPLIYKEVISDLSREMSGDEHSAHKRPFDA
B3: Regulatory particle non-ATPase 7 (protein, UniProt Q9V3G7 1-389)
chain: MPAENLEEQGLEKNPNLELAQTKFLLTLAEYKQDAALKAKLLEAIRTENMAPWYEHICSELGWTVDKDLLARMKENNRVEVEQLDAAIEDAEKNLGEMEVREANLKKSEYLCRIGDKAAAETAFRKTYEKTVSLGHRLDIVFHLIRLGLFYLDHDLITRNIDKAKYLIEEGGDWDRRNRLKVYQGVYSVAVRDFKAAATFFLDTVSTFTSYELMDYPTFVRYTVYVAMIALPRNELRDKVIKGSEIQEVLHGLPDVKQFLFSLYNCQYENFYVHLAGVEKQLRLDYLIHPHYRYYVREMRILGYTQLLESYRSLTLQYMAESFGVTVEYIDQELARFIAAGRLHAKVDRVGGIVETNRPDNKNWQYQATIKQGDLLLNRIQKLSRVINI
B4: Walrus (protein, UniProt Q7KN94 20-330)
chain: STLVVAEHNNEVLNPITLNTISAAKKIGGDVTVLVAGTKCGPASEALSKVDGVTKVLVAENAAFNGFTAESLTPLVLAAQSQFKFTHILAGASAFGKNVLPRVAAKLDVSPISEIIDVKSDDTFVRTIYAGNAILTLKSKDAVKVITVRSTNFPPAATSGGSGAVEQAPAGDFASSLSEFVSQELTKSDRPELAGAKVIVSGGRGLKSGDNFKLLYDLADKFGAAVGASRAAVDAGFVPNDLQIGQTGKIVAPELYIAVGISGAIQHLAGMKDSKTIVAINKDPEAPIFQVADIGIVADLFKAVPELTGKL
B5: Cabeza (protein, UniProt Q27294 1-399)
chain: MERGGYGGGSGQGYNNFAVPPPNYQQMPNKTGNYNEPPPNYGKQGGGYDSGSGHRGSGGSGNGGGGGGSWNDRGGNSYGNGGASKDSYNKGHGGYSGGGGGGGGGGGGGSGGNDMITQEDTIFVSGMDPSTTEQDIETHFGAIGIIKKDKRTMKPKIWLYKNKETGASKGEATVTYDDTNAAQSAIEWFDGRDFNGNAIKVSLAQRQNNWNKGGGGGGGGGGRGGFGGRRGGGGGGGGGGGGGGRFDRGGGGGGGRYDRGGGGGGGGGGGNVQPRDGDWKCNSCNNTNFAWRNECNRCKTPKGDDEGSSGGGGGGGYGGGGGGGGYDRGNDRGSGGGGYHNRDRGGNSQGGGGGGGGGGGYSRFNDNNGGGRGGRGGGGGNRRDGGPMRNDGGMRSRPY

The test concerns the target Sgg-PB tagged with 3xFLAG-StrepTagII-mVenus-StrepTagII (FSVS) (D. melanogaster (endogenous in embryos)). The test can be described thus: affinity purification with mass spectrometry; iPAC-MS: lysate of 8-20 hr embryos with endogenously tagged Sgg, divided into three (6 mg total protein per pulldown) and purified independently on ANTI-FLAG M2 affinity gel, Strep-Tactin Superflow resin and anti-GFP mAb agarose; 2 h at 4°C; extraction buffer 50 mM Tris pH 7.5, 125 mM NaCl, 1.5 mM MgCl2, 1 mM EDTA, 5% glycerol, 0.4% Igepal CA-630, 0.5% digitonin, 0.1% Tween 20; LC-MS/MS, label-free quantification, QProt against the w1118 control; enriched with at least two of the three tags at FDR < 0.05.
Turning to B1, the binding result is recorded as “binds”.

Regarding B2, the binding result was “binds”.

As for B3, the binding entry is recorded as “binds”.

For the molecule B4, the binding result is listed as “binds”.

B5: the binding entry is “binds”.
